Data from publication PMC6389896 (Communications Biology, 2019).
No constants are given. Whether binding was seen depends on the method and setting. For some assays here: In cells and extracts the contact can be indirect. Some results given as binding are weak or reduced against the parent protein; the word gives no strength.

The chains behind the UniProt entries cited, without tags or fusion partners. Where a name states a change or a piece, a line headed by the entry shows the natural chain unless it says otherwise. Residues count along the entry.
UniProt Q15109, residues 23-342: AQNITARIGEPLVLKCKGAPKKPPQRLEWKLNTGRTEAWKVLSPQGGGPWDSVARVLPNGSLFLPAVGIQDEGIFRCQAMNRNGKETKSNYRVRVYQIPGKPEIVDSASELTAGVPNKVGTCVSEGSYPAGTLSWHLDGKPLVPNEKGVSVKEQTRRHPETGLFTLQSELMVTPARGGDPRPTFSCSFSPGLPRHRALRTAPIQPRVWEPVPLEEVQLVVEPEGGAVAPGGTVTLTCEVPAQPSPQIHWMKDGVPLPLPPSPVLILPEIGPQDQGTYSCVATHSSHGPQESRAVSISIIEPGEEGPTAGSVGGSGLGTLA
UniProt P01178: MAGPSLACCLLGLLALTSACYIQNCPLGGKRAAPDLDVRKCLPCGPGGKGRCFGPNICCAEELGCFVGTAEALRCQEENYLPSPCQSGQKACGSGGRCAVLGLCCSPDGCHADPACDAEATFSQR

Columns and labels:
[1] = molecular target: Endogenous soluble RAGE in human serum (human (endogenous in human serum)) (UniProt Q15109); assay: SEC; gel permeation of human serum (12 ml, preincubated with 48 ng oxytocin) on Superdex 75 pg HiLoad 26/600, 5 mM ammonium acetate pH 7.8, 1.0 ml/min; oxytocin found in the fractions by EIA
[2] = molecular target: Endogenous soluble RAGE in human serum (human (endogenous in human serum)) (UniProt Q15109); assay: co-IP; anti-RAGE monoclonal antibody coupled to an NHS-activated HiTrap column; 50 ml human serum applied in 50 mM Tris-HCl pH 7.4, 0.15 M NaCl; eluted with 100 mM glycine-HCl pH 2.5; eluates analysed by EIA and Western blotting

binding [1]: binds
binding [2]: binds
Binder: CYIQNCPLG (peptide, UniProt P01178 20-28) [Endogenous oxytocin in human serum]
